Whole data set: some 33,000 sequences, median “E-score (-0.5 to 0.5)” near -0.016, cut for the highest 2% near 0.3. The list shows a part of the results.
target: T1, Yer184c (UniProt P39961); experiment: PBM E-score (8-mer binding enrichment) (E-score (-0.5 to 0.5)); higher = stronger / more preferred TF binding; details: protein concentration: 100 nM; construct: GST-full length
T1 sequence: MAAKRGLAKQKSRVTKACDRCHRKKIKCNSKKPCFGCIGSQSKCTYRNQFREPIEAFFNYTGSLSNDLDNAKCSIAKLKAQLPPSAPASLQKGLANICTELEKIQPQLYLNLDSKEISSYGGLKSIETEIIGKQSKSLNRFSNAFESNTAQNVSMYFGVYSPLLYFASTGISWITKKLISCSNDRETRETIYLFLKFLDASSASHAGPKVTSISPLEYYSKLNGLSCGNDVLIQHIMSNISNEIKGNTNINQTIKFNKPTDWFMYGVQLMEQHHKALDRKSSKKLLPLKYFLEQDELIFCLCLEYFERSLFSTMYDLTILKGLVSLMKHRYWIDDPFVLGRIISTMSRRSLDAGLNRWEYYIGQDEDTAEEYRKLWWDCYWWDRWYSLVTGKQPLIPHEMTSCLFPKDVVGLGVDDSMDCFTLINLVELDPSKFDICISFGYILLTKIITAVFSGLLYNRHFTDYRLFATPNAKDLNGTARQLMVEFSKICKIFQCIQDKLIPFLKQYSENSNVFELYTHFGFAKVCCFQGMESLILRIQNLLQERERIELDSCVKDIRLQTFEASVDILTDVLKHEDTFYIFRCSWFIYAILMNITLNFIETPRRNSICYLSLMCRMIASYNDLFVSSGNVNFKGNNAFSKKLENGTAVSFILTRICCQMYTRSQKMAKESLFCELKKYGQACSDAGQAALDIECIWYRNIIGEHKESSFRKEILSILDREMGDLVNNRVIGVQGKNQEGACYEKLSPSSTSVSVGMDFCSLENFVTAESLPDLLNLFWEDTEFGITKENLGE
Outline: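 Yeast transcription factors, full-length or as DNA-binding domains, were expressed with a GST tag using PURExpress in vitro transcription/translation. At about 100-200 nM they were applied to universal all-10-mer Agilent arrays, double-stranded by primer extension on fresh or once-stripped slides. Fluorescent anti-GST detected bound protein, and masliner normalised the scans. E-scores for ungapped eight-base words, pooled with reverse complements, came from the Universal PBM Analysis Suite.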

Row | Sequence | PBM E-score
1 | CTGTAGTC | -0.215
2 | AGCTCTAC | -0.195
3 | CCTTGCCA | -0.0398
4 | ATACTAAG | 0.144
5 | GAATTCCC | -0.0339
6 | CCGAGAAA | 0.351
7 | ATGCTGCC | -0.0664
8 | GAAGCGCA | 0.0914
9 | GCCTCTAC | -0.29
10 | AGGGTCAA | 0.0329
11 | CCAGCAGC | -0.205
12 | GGTAATAC | 0.14
13 | ATAAGTTA | 0.0936
14 | AGCCCTTA | -0.102
15 | GTCGTAAC | -0.0708
16 | ACCGATAA | 0.261
17 | GCGTAAGC | -0.247
18 | CCGTGTAG | -0.0156
19 | CAGCTATA | -0.153
20 | CGCTAAGA | 0.073
21 | ATGCATAG | -0.0591
22 | CTCAGTCC | -0.163
23 | CAACCATA | -0.0489
24 | CGCGTGCA | -0.149
25 | CGAATCAA | 0.203

Retrieved one by one from the list above, 4 records:
Row | Sequence | PBM E-score
10 | AGGGTCAA | 0.0329
6 | CCGAGAAA | 0.351
8 | GAAGCGCA | 0.0914
22 | CTCAGTCC | -0.163

Remaining list, next part.

Row | Sequence | PBM E-score
26 | AGAAAAGG | 0.0774
27 | GATGATAC | 0.00594
28 | TACATACA | 0.123
29 | ATAAACGG | 0.236
30 | GCTAATAA | 0.0169
31 | AATCGTCA | -0.0694
32 | GCCCGCGC | 0.132
33 | CAGGCAGG | -0.122
34 | ACCGTAGG | -0.23
35 | CACCCCTG | -0.382
36 | AATCGTGA | -0.0488
37 | CGGCGACG | 0.157
38 | CGCGTTAA | -0.0373
39 | CCTATCCG | -0.0528
40 | GGGAGATA | -0.161
41 | CCGATCGC | 0.125
42 | CGAACACA | 0.154
43 | AGAGAATC | -0.0146
44 | AGTATGAT | 0.1
45 | TCATCGAA | 0.0784
46 | ACGTTTTG | -0.11
47 | CGCGGTTA | 0.135
48 | GGCGAGCA | -0.14
49 | GTCTAAAA | -0.0151
50 | CCGGTGAG | 0.0289

Row | Sequence | PBM E-score
51 | AAAGGTGA | -0.0785
52 | GGATTGCA | 0.0231
53 | ACGTCAGT | -0.185
54 | GACGTATA | -0.196
55 | CACGCCAA | 0.0109
56 | ATAAAAGC | 0.0719
57 | AGTGGTTC | 0.02
58 | TTACCAAA | 0.146
59 | GATGAGGC | -0.2
60 | CCTGTACG | -0.107
61 | AGTGTCGG | 0.17
62 | CACGTCGG | 0.0631
63 | CAATCGGA | 0.278
64 | CACATAAG | -0.126
65 | GCAAAGGC | -0.222
66 | CACCGGGA | 0.152
67 | AGTATACT | -0.164
68 | ATTAGAAA | 0.151
69 | ACGCCGAT | 0.151
70 | AGCCAACT | -0.224
71 | GAGCGTAA | 0.0232
72 | GGAAGACC | 0.0141
73 | AACTGATT | -0.0342
74 | AGCGTGCG | 0.0419
75 | CCATATAA | -0.0407

Row | Sequence | PBM E-score
76 | AATACGAA | 0.22
77 | CATTTAGC | -0.135
78 | GTAGAAGA | -0.122
79 | CCGCCCTA | -0.158
80 | GAAGAGAC | 0.196
81 | AACAGCTA | -0.0664
82 | CACAACCC | -0.144
83 | AGCGCAAG | -0.108
84 | CTCCGTCA | 0.0186
85 | AGTGGGTC | -0.257
86 | AATCTGCT | 0.0114
87 | AGGTTGCC | -0.136
88 | AGGCACCT | -0.183
89 | CCTGGCCC | -0.134
90 | CTCAATCA | 0.119
91 | ACGTAACG | -0.107
92 | CTAAGTAA | 0.11
93 | AGCGTAAC | 0.0881
94 | CCGTTACG | 0.0574
95 | GACGAGTC | -0.106
96 | AAAGTTGG | -0.0523
97 | TAATGATA | 0.25
98 | GGTGCCAC | -0.119
99 | AAAATGAT | 0.189
100 | CTTTCCCA | -0.0839

Row | Sequence | PBM E-score
101 | ACGCTCTA | -0.311
102 | CGCTGCGA | 0.0144
103 | TCAACTCA | -0.0352
104 | GAGCCAAA | -0.115
105 | AATCAGGT | 0.255
106 | AATCTCCC | -0.132
107 | AAGTTCAA | 0.229
108 | AGCTACCA | -0.173
109 | CTATAAAG | -0.034
110 | GATTTGCC | 0.181
111 | GACCGTGA | 0.0402
112 | CACCCATC | -0.107
113 | AAAGCAAA | 0.221
114 | AGCTGTTC | -0.0646
115 | CTGTGGCC | -0.15
116 | AAACAGGT | -0.0555
117 | CAATTAAG | 0.21
118 | GCCAGGAC | -0.161
119 | TAGGGACA | -0.0514
120 | GGAAGAAA | 0.19
121 | AAGAAGGG | -0.268
122 | CCCTTTGA | -0.266
123 | GCCGCACA | -8e-05
124 | ATATAACC | -0.0755
125 | AAACCTAG | -0.0735

Reformatted in CSV form: entries from further up
Row,Sequence,PBM E-score
122,CCCTTTGA,-0.266
123,GCCGCACA,-8e-05

More records

Row | Sequence | PBM E-score
126 | GCAGCCCA | -0.289
127 | AGTTTGGA | 0.135
128 | AAAATATA | 0.273
129 | ATGCAAGG | -0.365
130 | AACGAATT | 0.118
131 | GAAGATTA | 0.0705
132 | TCATCACA | -0.272
133 | ACACAGCT | -0.0952
134 | TAGGTGCA | -0.175
135 | CCAACAAA | 0.121
136 | AAACCTAA | 0.0262
137 | GAAGAACA | 0.194
138 | ACAGGAAG | 0.0482
139 | CAGGTGCC | -0.0579
140 | GACTCATC | -0.254
141 | ACGCACGG | 0.17
142 | ATTCGGTA | 0.329
143 | GTCGATAA | -0.0725
144 | AGATGGAC | 0.0923
145 | AAAGAAGT | 0.0907
146 | ACTGAGCA | -0.107
147 | CAACTTGA | 0.128
148 | ATGGGGGA | -0.387
149 | ACGAATGG | 0.0455
150 | AATGCGCT | -0.156

Row | Sequence | PBM E-score
151 | CAACGCTA | -0.142
152 | CTTTGGGC | 0.0655
153 | CGCAACCA | 0.0528
154 | GCTAACCC | -0.129
155 | CCCAGCAA | -0.00378
156 | ATAGCTAG | -0.13
157 | CGAGAGGA | 0.0152
158 | GTCAAGGA | -0.0802
159 | CATTGCAG | -0.038
160 | CGACGGTA | 0.152
161 | CCAGAGAC | -0.195
162 | AGTTGACC | 0.0585
163 | GATTTCTA | 0.252
164 | AATTACAT | 0.214
165 | CGGGACAA | 0.202
166 | ACATGAAA | -0.193
167 | CATATGGC | -0.0624
168 | CAGATGGC | -0.0517
169 | GGTCACTA | -0.0834
170 | GTTGGTGA | -0.136
171 | ATTTGAGG | 0.0459
172 | ATTCGGAC | 0.349
